Construct, isoform or probe ends are uncertain for at least one entry. At least one verdict was read from the data and is not stated in words by the source. For some assays here: Protein sequences can lack the tags named with them.
Legend:
Test in all cases: EMSA
[1] = target: T1, FANCA (human) (UniProt O15360); settings: EMSA: 125 mM Tris pH 7.5, 5 mM EDTA, 6% glycerol, 1 mM DTT, 100 mM NaCl, 1 nM substrate, RT 45 min, 4% native PAGE in 1x TAE, recombinant protein, label: 32P 5' (T4 PNK)
T1 sequence (looked up, limits assumed): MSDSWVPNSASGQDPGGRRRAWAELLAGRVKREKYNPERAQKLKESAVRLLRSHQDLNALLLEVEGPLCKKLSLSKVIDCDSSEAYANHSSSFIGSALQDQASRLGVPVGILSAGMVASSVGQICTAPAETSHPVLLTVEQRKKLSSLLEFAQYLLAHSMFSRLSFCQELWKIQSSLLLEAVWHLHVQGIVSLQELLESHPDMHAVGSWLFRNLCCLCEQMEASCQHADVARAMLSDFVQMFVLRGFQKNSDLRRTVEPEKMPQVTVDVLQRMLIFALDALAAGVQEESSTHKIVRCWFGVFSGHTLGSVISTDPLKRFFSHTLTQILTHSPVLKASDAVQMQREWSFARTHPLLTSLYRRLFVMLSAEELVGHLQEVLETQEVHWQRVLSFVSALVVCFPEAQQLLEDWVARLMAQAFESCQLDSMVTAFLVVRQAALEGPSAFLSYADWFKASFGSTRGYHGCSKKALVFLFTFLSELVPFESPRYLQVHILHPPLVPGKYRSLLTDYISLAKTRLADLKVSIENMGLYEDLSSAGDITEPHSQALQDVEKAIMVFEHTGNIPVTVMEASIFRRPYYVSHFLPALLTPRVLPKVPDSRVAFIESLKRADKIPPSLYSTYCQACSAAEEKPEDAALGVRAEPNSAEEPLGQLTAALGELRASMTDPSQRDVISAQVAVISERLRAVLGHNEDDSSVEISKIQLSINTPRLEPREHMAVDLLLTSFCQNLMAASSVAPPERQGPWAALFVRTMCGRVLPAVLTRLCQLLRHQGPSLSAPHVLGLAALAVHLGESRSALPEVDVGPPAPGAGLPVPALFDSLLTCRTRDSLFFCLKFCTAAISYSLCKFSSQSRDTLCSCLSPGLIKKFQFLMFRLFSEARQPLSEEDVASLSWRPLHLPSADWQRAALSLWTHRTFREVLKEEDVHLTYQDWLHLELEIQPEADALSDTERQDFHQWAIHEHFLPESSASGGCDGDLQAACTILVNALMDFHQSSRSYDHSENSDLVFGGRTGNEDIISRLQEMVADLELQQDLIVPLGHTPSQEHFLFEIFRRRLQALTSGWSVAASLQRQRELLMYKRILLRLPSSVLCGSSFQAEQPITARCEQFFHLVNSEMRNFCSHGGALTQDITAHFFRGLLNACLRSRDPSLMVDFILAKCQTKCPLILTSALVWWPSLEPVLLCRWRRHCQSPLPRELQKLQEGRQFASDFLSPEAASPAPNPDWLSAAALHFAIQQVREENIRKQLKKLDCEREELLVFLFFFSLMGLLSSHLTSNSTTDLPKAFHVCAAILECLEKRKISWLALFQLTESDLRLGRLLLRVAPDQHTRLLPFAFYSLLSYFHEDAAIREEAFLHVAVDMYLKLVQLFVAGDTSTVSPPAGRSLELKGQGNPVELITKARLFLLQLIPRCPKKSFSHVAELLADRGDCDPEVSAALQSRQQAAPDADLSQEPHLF

[2] = tested on: FANCA + FANCG; settings: 10 nM each; EMSA: 125 mM Tris pH 7.5, 5 mM EDTA, 6% glycerol, 1 mM DTT, 100 mM NaCl, 1 nM substrate, RT 45 min; 4% native PAGE in 1x TAE; recombinant protein; label: 32P 5' (T4 PNK)
[3] = tested on: FANCA + FAAP20 + FANCG; settings: 10 nM each, no synergy; EMSA: 125 mM Tris pH 7.5, 5 mM EDTA, 6% glycerol, 1 mM DTT, 100 mM NaCl, 1 nM substrate, RT 45 min; 4% native PAGE in 1x TAE; recombinant protein; label: 32P 5' (T4 PNK)

GACGCTGCCGAATTCTACCAGTGCCTTGCTAGGACATCTTTGCCCACCTGCAGGTTCACCC [EMSA ssDNA 61-mer]
binding result ([1]; 10 nM suboptimal, 80 nM positive control, single-stranded DNA): binds

GACGCUGCCGAAUUCUACCAGUGCCUUGCUAGGACAUCUUUGCCCACCUGCAGGUUCACCC [EMSA ssRNA 61-mer]
binding result ([1]; suboptimal FANCA): binds

GTCCTCCACCGCAGCCCACCTGCCCACCTTGTTGCTGATCTCAATCAGCTCTGGA / GCTGGCACGGTCGGATTTAAAGTTAGGGCAGGTGGGCTGCGGTGGAGGACG [splayed arm DNA]
binding result ([1]; FANCA 10 nM suboptimal): binds
binding result [2]: binds
binding result [3]: binds

From paper PMC10449828, “Fanconi anemia associated protein 20 (FAAP20) plays an essential role in homology-directed repair of DNA double-strand breaks”
